The supplement of paper PMC10849652
Some of the results follow.

Amino acid sequences for entries named in this document (tags omitted). A change or cut given only in a name is not applied to a line headed by its entry.
UniProt Q13045: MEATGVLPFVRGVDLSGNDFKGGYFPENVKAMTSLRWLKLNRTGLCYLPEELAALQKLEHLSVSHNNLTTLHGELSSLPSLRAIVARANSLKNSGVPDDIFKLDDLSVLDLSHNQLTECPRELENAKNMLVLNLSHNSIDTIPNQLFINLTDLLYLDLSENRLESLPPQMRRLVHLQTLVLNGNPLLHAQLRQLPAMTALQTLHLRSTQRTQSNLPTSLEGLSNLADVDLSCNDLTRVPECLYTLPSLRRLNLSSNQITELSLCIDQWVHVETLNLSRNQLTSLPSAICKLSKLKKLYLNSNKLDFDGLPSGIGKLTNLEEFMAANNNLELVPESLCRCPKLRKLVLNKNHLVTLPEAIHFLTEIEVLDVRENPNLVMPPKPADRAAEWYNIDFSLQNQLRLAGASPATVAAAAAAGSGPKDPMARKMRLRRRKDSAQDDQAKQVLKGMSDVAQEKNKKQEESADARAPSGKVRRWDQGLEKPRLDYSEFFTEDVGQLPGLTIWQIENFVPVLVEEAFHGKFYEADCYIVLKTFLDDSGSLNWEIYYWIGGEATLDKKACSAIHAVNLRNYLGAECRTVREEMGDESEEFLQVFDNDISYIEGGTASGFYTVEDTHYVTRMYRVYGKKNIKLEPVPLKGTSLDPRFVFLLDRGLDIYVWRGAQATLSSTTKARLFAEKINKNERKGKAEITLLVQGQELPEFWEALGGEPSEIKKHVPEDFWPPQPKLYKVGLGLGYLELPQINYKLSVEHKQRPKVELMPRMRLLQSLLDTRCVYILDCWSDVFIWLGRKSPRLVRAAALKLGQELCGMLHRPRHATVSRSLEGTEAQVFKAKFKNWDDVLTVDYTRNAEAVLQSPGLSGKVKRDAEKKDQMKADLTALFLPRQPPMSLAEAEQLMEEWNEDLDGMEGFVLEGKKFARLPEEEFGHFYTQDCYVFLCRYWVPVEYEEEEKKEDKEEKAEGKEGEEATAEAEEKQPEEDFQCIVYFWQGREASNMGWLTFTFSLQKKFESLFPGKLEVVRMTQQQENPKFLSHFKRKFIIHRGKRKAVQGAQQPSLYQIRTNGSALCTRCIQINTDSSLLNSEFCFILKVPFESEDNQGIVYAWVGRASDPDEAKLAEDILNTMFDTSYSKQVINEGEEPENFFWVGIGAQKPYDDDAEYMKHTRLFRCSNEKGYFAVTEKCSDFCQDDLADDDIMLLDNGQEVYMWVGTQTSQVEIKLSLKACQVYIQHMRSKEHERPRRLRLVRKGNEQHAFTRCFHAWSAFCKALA
UniProt Q96IG2: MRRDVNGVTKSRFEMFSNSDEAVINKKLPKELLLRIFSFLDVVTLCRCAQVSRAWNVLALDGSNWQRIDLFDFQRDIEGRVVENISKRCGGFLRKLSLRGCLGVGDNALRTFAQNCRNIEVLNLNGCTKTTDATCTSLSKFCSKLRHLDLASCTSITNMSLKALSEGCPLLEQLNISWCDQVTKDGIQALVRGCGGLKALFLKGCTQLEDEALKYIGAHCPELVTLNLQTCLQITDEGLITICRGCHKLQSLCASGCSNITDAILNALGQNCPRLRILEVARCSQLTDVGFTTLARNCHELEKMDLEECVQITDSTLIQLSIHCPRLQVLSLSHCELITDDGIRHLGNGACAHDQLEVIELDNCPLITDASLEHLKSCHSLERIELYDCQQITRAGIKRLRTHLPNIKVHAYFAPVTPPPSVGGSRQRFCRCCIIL
UniProt Q6P3S6: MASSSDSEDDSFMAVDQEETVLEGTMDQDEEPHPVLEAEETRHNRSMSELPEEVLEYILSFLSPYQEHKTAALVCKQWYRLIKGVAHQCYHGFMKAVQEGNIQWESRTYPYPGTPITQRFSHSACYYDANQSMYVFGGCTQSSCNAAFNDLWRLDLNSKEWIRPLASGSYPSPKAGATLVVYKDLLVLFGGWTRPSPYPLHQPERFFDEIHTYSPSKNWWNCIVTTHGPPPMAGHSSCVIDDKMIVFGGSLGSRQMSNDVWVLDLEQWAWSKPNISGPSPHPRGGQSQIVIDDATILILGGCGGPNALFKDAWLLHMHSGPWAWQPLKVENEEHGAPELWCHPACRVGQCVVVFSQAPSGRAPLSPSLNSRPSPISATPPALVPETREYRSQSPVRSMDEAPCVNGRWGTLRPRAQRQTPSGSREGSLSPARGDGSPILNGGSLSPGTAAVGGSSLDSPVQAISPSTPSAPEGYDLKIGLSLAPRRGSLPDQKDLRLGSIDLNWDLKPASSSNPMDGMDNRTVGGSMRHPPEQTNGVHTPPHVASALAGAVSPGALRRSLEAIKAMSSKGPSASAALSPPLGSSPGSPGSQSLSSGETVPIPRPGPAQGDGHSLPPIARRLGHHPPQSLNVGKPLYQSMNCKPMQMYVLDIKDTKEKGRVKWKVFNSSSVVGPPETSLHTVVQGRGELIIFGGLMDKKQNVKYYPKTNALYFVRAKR
UniProt P49327, whole entry, looked up: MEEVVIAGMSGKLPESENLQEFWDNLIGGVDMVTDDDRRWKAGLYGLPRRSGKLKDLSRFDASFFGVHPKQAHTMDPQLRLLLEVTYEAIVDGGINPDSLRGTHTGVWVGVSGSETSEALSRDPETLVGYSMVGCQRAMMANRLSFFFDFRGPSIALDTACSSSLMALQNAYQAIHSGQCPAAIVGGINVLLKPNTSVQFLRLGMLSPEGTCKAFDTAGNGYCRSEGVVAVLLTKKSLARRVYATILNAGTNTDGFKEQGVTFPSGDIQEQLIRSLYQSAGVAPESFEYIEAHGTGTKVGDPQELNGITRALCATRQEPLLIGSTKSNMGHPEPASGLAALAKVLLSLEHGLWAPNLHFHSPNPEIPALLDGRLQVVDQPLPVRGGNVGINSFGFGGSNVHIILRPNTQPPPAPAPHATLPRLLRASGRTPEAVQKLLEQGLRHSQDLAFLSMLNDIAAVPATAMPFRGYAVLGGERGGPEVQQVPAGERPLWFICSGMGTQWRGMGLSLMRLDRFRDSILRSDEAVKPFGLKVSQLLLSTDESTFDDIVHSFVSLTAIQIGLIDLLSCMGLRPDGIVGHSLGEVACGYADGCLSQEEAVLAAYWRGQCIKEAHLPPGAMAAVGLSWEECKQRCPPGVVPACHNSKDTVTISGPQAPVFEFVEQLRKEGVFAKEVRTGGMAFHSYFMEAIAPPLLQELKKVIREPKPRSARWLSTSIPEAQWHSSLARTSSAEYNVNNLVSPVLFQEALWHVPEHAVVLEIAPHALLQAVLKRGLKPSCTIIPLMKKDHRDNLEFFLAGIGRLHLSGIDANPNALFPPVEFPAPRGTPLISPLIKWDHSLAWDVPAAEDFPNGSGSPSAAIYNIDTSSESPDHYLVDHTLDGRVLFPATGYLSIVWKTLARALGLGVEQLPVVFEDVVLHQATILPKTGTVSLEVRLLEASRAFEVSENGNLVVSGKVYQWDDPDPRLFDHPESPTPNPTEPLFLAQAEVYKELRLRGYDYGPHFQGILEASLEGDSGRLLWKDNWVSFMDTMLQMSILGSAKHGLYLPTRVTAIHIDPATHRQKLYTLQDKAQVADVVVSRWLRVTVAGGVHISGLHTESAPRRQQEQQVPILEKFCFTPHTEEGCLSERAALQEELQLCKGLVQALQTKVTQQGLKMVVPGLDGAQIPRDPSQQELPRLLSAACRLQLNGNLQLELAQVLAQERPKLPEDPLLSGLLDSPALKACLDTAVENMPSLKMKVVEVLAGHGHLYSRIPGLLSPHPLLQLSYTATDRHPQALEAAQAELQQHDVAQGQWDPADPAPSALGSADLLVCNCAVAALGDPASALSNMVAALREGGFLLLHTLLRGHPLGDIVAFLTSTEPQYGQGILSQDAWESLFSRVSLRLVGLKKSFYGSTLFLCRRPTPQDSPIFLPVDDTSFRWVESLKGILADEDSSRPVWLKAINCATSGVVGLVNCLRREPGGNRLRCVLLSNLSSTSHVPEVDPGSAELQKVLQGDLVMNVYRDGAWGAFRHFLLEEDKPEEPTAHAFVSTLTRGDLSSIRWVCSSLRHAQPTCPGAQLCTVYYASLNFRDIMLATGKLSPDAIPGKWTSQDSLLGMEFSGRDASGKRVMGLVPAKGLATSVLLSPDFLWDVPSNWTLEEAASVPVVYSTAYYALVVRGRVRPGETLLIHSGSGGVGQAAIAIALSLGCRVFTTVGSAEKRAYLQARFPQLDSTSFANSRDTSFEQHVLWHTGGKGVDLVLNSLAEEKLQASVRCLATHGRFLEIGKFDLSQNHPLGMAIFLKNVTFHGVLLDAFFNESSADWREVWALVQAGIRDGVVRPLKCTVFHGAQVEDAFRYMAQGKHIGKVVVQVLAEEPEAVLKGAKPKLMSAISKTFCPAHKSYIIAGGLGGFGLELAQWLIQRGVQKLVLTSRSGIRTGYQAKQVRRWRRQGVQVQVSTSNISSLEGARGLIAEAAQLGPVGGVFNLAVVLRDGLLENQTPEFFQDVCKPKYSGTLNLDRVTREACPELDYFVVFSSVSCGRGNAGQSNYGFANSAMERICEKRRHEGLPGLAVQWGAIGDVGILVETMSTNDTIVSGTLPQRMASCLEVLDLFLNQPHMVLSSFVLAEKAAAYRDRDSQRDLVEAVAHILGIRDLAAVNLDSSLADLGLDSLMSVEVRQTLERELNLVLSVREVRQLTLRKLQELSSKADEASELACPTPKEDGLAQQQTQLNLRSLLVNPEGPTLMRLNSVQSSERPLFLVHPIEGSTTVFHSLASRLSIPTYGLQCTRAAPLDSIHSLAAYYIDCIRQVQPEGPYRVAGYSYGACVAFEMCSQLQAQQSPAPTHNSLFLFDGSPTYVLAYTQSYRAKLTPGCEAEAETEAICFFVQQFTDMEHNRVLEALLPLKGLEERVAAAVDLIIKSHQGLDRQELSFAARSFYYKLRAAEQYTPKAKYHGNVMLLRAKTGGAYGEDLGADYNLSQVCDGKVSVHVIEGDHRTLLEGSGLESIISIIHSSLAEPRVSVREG
UniProt Q96HJ9: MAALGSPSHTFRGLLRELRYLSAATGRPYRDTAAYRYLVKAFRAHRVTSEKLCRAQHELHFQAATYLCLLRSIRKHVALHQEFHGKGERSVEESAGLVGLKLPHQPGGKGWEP
UniProt Q9UKT4: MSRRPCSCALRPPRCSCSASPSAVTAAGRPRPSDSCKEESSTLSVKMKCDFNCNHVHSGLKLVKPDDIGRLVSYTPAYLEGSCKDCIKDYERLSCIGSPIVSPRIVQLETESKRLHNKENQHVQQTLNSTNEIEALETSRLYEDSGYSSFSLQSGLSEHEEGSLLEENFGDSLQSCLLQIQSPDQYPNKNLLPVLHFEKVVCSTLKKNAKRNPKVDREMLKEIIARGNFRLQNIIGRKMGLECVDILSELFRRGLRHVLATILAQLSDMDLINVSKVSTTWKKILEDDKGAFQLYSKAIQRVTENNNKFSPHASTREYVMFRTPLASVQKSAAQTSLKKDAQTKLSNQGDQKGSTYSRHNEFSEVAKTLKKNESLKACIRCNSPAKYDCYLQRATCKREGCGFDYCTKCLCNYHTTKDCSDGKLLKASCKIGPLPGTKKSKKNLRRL
UniProt Q5XUX1: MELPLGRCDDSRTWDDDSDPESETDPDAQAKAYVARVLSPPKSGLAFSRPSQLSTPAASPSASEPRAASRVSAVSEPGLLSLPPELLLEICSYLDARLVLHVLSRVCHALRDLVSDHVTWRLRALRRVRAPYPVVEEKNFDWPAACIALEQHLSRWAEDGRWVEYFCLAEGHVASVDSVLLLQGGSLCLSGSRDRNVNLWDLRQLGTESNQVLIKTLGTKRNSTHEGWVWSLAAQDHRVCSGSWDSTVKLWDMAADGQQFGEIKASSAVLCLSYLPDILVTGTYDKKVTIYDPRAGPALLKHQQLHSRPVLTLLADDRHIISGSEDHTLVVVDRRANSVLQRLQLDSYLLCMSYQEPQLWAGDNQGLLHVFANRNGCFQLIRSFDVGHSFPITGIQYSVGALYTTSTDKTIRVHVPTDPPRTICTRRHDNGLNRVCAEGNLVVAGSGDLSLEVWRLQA
UniProt Q9Y3D6: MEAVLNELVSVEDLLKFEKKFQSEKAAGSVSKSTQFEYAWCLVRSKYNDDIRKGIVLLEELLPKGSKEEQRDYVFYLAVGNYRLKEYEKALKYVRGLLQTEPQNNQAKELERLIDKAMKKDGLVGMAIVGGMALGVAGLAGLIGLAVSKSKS

Tests used:
Experiment in all cases: log2 fold change, soluble protein after heating vs DMSO (PISA); higher = thermal stabilisation; K562 lysate, 10 uM; active = over 0.2 and 3.5 SD of the protein, either way, in both replicates (recomputed)
erlotinib = compound: C#Cc1cccc(Nc2ncnc3cc(OCCOC)c(OCCOC)cc23)c1 [erlotinib]
In short: (§1)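 Log-two fold change in thermal stability relative to solvent controls is reported from duplicates. For each sample, crude K562 extract from dounce-homogenised pellets in PBS pH 7.4 with 1 mM MgCl2, at 1 mg/mL protein, was treated with 10 μM compound for 30 min. Aliquots heated for 3 min across 48°C-58°C were pooled, brought to 0.5% NP-40 at 4°C and cleared at 21,000xg for 90 min. The supernatant was quantified by TMTpro 16plex LC-MS/MS with channel sums equalised.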

[1] = compound: C/C(=N\NC(=O)C1=CC(=CC=C1)S(=O)(=O)N2CCOCC2)/C3=C(C=CC(=C3)Cl)O
In short: as §1

[2] = compound: C1=CC(=CC=C1C2=NC3=C(N2)C=C(C=C3)C(=O)N)OC4=CC=C(C=C4)Cl
In short: as §1

[3] = compound: C1=CC2=C(C=CC(=C2)/C=C\3/C(=O)NC(=NCC4=CC=CS4)S3)N=C1
In short: as §1

[4] = compound: C1=CC2=NC=CN=C2C=C1/C=C/3\C(=O)NC(=O)S3
In short: as §1

[5] = compound: C1=CC=C(C=C1)C2=NC(=C(N2)C3=CC=NC=C3)C4=CC(=C(C=C4)Cl)O
In short: as §1

[6] = compound: C1=CC=C2C(=C1)C3=NNC4=CC=CC(=C43)C2=O
In short: as §1

[7] = compound: C1CCN(C1)C(=O)NC2=CC=CC(=C2)NC3=NC=C(C(=N3)NCCC4=CN=CN4)Br
In short: as §1

[8] = compound: C1CN(CCC1(CC2=CC=C(C=C2)Cl)N)C3=NC=NC4=C3C=CN4
In short: as §1

IRAK-1-4 Inhibitor I = compound: C1COCCN1CCN2C3=CC=CC=C3N=C2NC(=O)C4=CC(=CC=C4)[N+](=O)[O-] [IRAK-1-4 Inhibitor I]
In short: as §1

Measured: log2 fold change

FLVCR1 (UniProt Q9Y5Y0)
inactive: erlotinib 0.128 | [1] 0.041 | [2] 0.026 | [3] -0.069 | [4] 0.051 | [5] 0.048 | [6] 0.087 | [7] -0.13 | [8] 0.011 | IRAK-1-4 Inhibitor I 0.018

FEN1 (UniProt P39748)
inactive: erlotinib -0.025 | [1] 0.022 | [2] -0.06 | [3] 0.018 | [4] -0.005 | [5] -0.027 | [6] 0.013 | [7] -0.005 | [8] -0.016 | IRAK-1-4 Inhibitor I 0.033

FGD6 (UniProt Q6ZV73)
inactive: erlotinib 0.011 | [1] -0.298 | [2] 0.042 | [3] 0.537 | [4] 0.404 | [5] 0.361 | [6] -0.353 | [7] 0.02 | [8] 0.042 | IRAK-1-4 Inhibitor I -0.019

FDXR isoform 7 (UniProt P22570)
inactive: erlotinib -0.003 | [1] -0.259 | [2] -0.015 | [3] 0.001 | [4] 0.013 | [5] 0.015 | [6] -0.044 | [7] 0.021 | [8] 0.046 | IRAK-1-4 Inhibitor I -0.011

FLII (UniProt Q13045)
inactive: erlotinib 0.009 | [1] 0.013 | [2] -0.012 | [3] -0.042 | [4] -0.005 | [5] 0.005 | [6] 0.002 | [7] 0.001 | [8] -0.027 | IRAK-1-4 Inhibitor I -0.023

FKBP4 (UniProt Q02790)
inactive: erlotinib -0.014 | [1] 0.04 | [2] -0.018 | [3] 0.002 | [4] -0.007 | [5] 0.004 | [6] 0.028 | [7] 0.002 | [8] 0.011 | IRAK-1-4 Inhibitor I -0.003

FMNL1 isoform 3 (UniProt O95466)
inactive: erlotinib -0.045 | [1] 0.045 | [2] -0.006 | [3] -0.102 | [4] -0.062 | [5] -0.004 | [6] 0.018 | [7] -0.006 | [8] 0.019 | IRAK-1-4 Inhibitor I -0.009

FKBP8 isoform 2 (UniProt Q14318)
inactive: erlotinib -0.011 | [1] 0.041 | [2] 0.012 | [3] 0.002 | [4] -0.005 | [5] 0.01 | [6] 0 | [7] -0.054 | [8] 0.001 | IRAK-1-4 Inhibitor I 0.008

FBXL20 (UniProt Q96IG2)
inactive: erlotinib 0 | [1] -0.034 | [2] 0.047 | [3] 0.013 | [4] -0.081 | [5] -0.063 | [6] -0.047 | [7] -0.025 | [8] 0.041 | IRAK-1-4 Inhibitor I 0.017

FAM98C (UniProt Q17RN3)
inactive: erlotinib 0.074 | [1] 0.024 | [2] 0.007 | [3] 0.004 | [4] 0.059 | [5] -0.064 | [6] -0.044 | [7] 0.074 | [8] 0.107 | IRAK-1-4 Inhibitor I -0.027

FDFT1 (UniProt P37268)
inactive: erlotinib -0.002 | [1] -0.072 | [2] -0.038 | [3] 0.176 | [4] 0.001 | [5] 0.211 | [6] 0.115 | [7] 0.005 | [8] 0.024 | IRAK-1-4 Inhibitor I -0.014

FBXO42 (UniProt Q6P3S6)
inactive: erlotinib 0.031 | [1] 0.008 | [2] 0.002 | [3] -0.03 | [4] -0.073 | [5] -0.063 | [6] -0.023 | [7] -0.059 | [8] -0.011 | IRAK-1-4 Inhibitor I 0.012

Looked up one by one from the entries so far (two):
FDFT1 (UniProt P37268)
inactive: erlotinib -0.002 | [1] -0.072 | [2] -0.038 | [3] 0.176 | [4] 0.001 | [5] 0.211 | [6] 0.115 | [7] 0.005 | [8] 0.024 | IRAK-1-4 Inhibitor I -0.014

FMNL1 isoform 3 (UniProt O95466)
inactive: erlotinib -0.045 | [1] 0.045 | [2] -0.006 | [3] -0.102 | [4] -0.062 | [5] -0.004 | [6] 0.018 | [7] -0.006 | [8] 0.019 | IRAK-1-4 Inhibitor I -0.009

Carrying on.

FBXL12 (UniProt Q9NXK8)
inactive: erlotinib 0.017 | [1] 0.065 | [2] 0.005 | [3] 0.023 | [4] 0.033 | [5] -0.071 | [6] 0.017 | [7] -0.031 | [8] 0.058 | IRAK-1-4 Inhibitor I 0.044

FAM98A (UniProt Q8NCA5)
inactive: erlotinib -0.004 | [1] -0.026 | [2] 0.028 | [3] -0.048 | [4] -0.02 | [5] 0.01 | [6] 0.014 | [7] -0.05 | [8] -0.017 | IRAK-1-4 Inhibitor I -0.04

FECH isoform 2 (UniProt P22830)
inactive: erlotinib 0.101 | [1] 0.062 | [2] -0.321 | [3] 0.42 | [4] -0.014 | [5] 0.354 | [6] 0.673 | [7] 0.183 | [8] -0.009 | IRAK-1-4 Inhibitor I 0.644

FASN (UniProt P49327)
inactive: erlotinib 0.011 | [1] 0.055 | [2] -0.004 | [3] 0.006 | [4] 0.011 | [5] -0.003 | [6] -0.006 | [7] -0.004 | [8] 0.014 | IRAK-1-4 Inhibitor I -0.007

FMC1 (UniProt Q96HJ9)
inactive: erlotinib -0.023 | [1] -0.106 | [2] 0.002 | [3] -0.032 | [4] 0.019 | [5] 0.109 | [6] 0.037 | [7] 0.099 | [8] -0.14 | IRAK-1-4 Inhibitor I -0.02

FBXO5 (UniProt Q9UKT4)
inactive: erlotinib -0.042 | [1] -0.06 | [2] 0.048 | [3] -0.054 | [4] -0.098 | [5] 0.021 | [6] 0.035 | [7] -0.026 | [8] 0.001 | IRAK-1-4 Inhibitor I 0.011

FNBP4 isoform 2 (UniProt Q8N3X1)
inactive: erlotinib -0.021 | [1] -0.007 | [2] -0.014 | [3] 0.019 | [4] 0.005 | [5] 0.011 | [6] 0.003 | [7] 0.015 | [8] 0.002 | IRAK-1-4 Inhibitor I 0.011

FAM98B (UniProt Q52LJ0)
inactive: erlotinib 0.033 | [1] -0.02 | [2] 0.029 | [3] 0.007 | [4] 0.007 | [5] 0.011 | [6] -0.057 | [7] -0.058 | [8] 0.015 | IRAK-1-4 Inhibitor I -0.012

FBXW9 (UniProt Q5XUX1)
inactive: erlotinib 0.001 | [1] 0.023 | [2] 0.003 | [3] -0.023 | [4] -0.016 | [5] 0 | [6] -0.018 | [7] -0.025 | [8] -0.049 | IRAK-1-4 Inhibitor I 0.006

FBRSL1, A0A3B3IRR3
inactive: erlotinib -0.014 | [1] -0.021 | [2] 0.042 | [3] -0.03 | [4] 0 | [5] -0.028 | [6] -0.199 | [7] 0.043 | [8] -0.015 | IRAK-1-4 Inhibitor I -0.024

FKBP9 (UniProt O95302)
inactive: erlotinib -0.048 | [1] 0.018 | [2] 0.011 | [3] 0.029 | [4] 0.003 | [5] -0.008 | [6] -0.009 | [7] -0.009 | [8] 0.022 | IRAK-1-4 Inhibitor I -0.027

FBXO30 (UniProt Q8TB52)
inactive: erlotinib 0.006 | [1] -0.064 | [2] -0.031 | [3] 0.014 | [4] -0.038 | [5] -0.008 | [6] 0.042 | [7] -0.014 | [8] -0.007 | IRAK-1-4 Inhibitor I -0.018

FIS1 (UniProt Q9Y3D6)
inactive: erlotinib -0.016 | [1] -0.025 | [2] 0.018 | [3] 0.01 | [4] -0.024 | [5] 0.01 | [6] 0.031 | [7] -0.029 | [8] -0.014 | IRAK-1-4 Inhibitor I -0.036

FBXW8 (UniProt Q8N3Y1)
inactive: erlotinib -0.002 | [1] 0.149 | [2] -0.179 | [3] -0.22 | [4] 0.033 | [5] -0.173 | [6] 0.029 | [7] -0.063 | [8] 0.166 | IRAK-1-4 Inhibitor I 0.107

FIG4 (UniProt Q92562)
inactive: erlotinib 0.032 | [1] -0.032 | [2] -0.029 | [3] 0 | [4] 0.007 | [5] 0.064 | [6] 0.02 | [7] 0.061 | [8] -0.053 | IRAK-1-4 Inhibitor I 0.003

FBRS (UniProt J3KNZ9)
inactive: erlotinib 0.012 | [1] -0.088 | [2] 0.1 | [3] -0.153 | [4] 0.087 | [5] -0.003 | [6] 0.01 | [7] 0 | [8] 0.054 | IRAK-1-4 Inhibitor I 0

FGFR1OP2 (UniProt Q9NVK5)
inactive: erlotinib 0.002 | [1] -0.002 | [2] 0.021 | [3] -0.01 | [4] 0.006 | [5] 0.049 | [6] -0.024 | [7] 0.067 | [8] -0.016 | IRAK-1-4 Inhibitor I 0.026

FNTB (UniProt P49356)
inactive: erlotinib -0.03 | [1] -0.038 | [2] 0.011 | [3] 0.013 | [4] -0.034 | [5] -0.005 | [6] -0.02 | [7] 0.028 | [8] -0.022 | IRAK-1-4 Inhibitor I -0.006
